PubChem BioAssay AID686938 | Drosophila RNAi Screening Center | 2013
Screen: 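Fly genes required for calcium entry once internal stores are emptied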 (primary screen). Cell system: Drosophila S2R+ cells. Knock-down reagent: long dsRNA against Drosophila genes, about 0.25 µg dsRNA per well, roughly 10,000 cells. Timing: 5 days of knock-down before the calcium assay. Challenge: thapsigargin (SERCA pump blocker) to empty calcium stores; entry signal taken 4 min after adding it. Measurement: 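Per-well fluo-4 fluorescence in two replicates, unnormalised, measured in resting cells and 4 min after store depletion by the SERCA blocker thapsigargin; ratio of the two present in few wells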. Reading the numbers: calcium entry signal: higher = stronger calcium signal after store depletion; resting calcium signal: higher = higher resting calcium signal. Units: calcium entry signal in fluorescence units; resting calcium signal in fluorescence units. Rule for the call: 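Called when the plate z-score of the entry-to-rest ratio, mean of duplicates, falls below −3; wells with low overall dye signal (Fmax z below −2) or more than five off-targets excluded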. Meaning of the calls: active = strongly reduced calcium entry; inactive = no strong reduction.
The deposit covers about 23,000 reagents; below is an unselected part of those with a known target gene and a result. Of all reagents, 75 (0.33%) were called active. 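Raw plate signals without normalisation; calls rest on plate z-scores that were not deposited; ratio present for only 364 wells.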 The record does not give: the dose of the treatment.

How did the screen score Vps29 (Vacuolar protein sorting 29) [DRSC00666]?
calcium entry signal, replicate 1: 3.90e7; resting calcium signal, replicate 1: 2.26e7; Call: inactive

With Oatp58Db (Organic anion transporting polypeptide 58Db) [DRSC04364], how do the results read?
calcium entry signal, replicate 1: 3.92e7; calcium entry signal, replicate 2: 5.14e7; resting calcium signal, replicate 1: 1.97e7; resting calcium signal, replicate 2: 2.27e7; Call: inactive

How did the screen score TwdlW (TweedleW) [DRSC15540]?
calcium entry signal, replicate 1: 3.16e7; calcium entry signal, replicate 2: 5.59e7; resting calcium signal, replicate 1: 1.54e7; resting calcium signal, replicate 2: 7.07e7; Call: inactive

What is on record for cry (cryptochrome) [DRSC16928]?
calcium entry signal, replicate 1: 3.15e7; calcium entry signal, replicate 2: 3.47e7; resting calcium signal, replicate 1: 3.88e7; resting calcium signal, replicate 2: 1.54e7; Call: inactive

Which result is listed for Esyt2 (Extended synaptotagmin-like protein 2) [DRSC16082]?
calcium entry signal, replicate 1: 5.30e7; calcium entry signal, replicate 2: 4.38e7; resting calcium signal, replicate 1: 2.42e7; resting calcium signal, replicate 2: 1.90e7; Call: inactive

2 neighbouring records from above:
TwdlW (TweedleW) [DRSC15540]: calcium entry signal, replicate 1 = 3.16e7; calcium entry signal, replicate 2 = 5.59e7; resting calcium signal, replicate 1 = 1.54e7; resting calcium signal, replicate 2 = 7.07e7; Call = inactive
cry (cryptochrome) [DRSC16928]: calcium entry signal, replicate 1 = 3.15e7; calcium entry signal, replicate 2 = 3.47e7; resting calcium signal, replicate 1 = 3.88e7; resting calcium signal, replicate 2 = 1.54e7; Call = inactive

Further records:
With CG18233 [DRSC10308], what was measured?
calcium entry signal, replicate 1: 3.63e7; calcium entry signal, replicate 2: 5.91e7; resting calcium signal, replicate 1: 1.80e7; resting calcium signal, replicate 2: 2.36e7; Call: inactive

What did the screen give for Cpr78Ca (Cuticular protein 78Ca) [DRSC11651]?
calcium entry signal, replicate 1: 2.09e7; calcium entry signal, replicate 2: 3.57e7; resting calcium signal, replicate 1: 1.01e7; resting calcium signal, replicate 2: 1.54e7; Call: inactive

For Btnd (Biotinidase) [DRSC18316], what was measured?
calcium entry signal, replicate 1: 3.42e7; calcium entry signal, replicate 2: 3.25e7; resting calcium signal, replicate 1: 1.67e7; resting calcium signal, replicate 2: 1.50e7; Call: inactive

How did the screen score Zip88E (Zinc/iron regulated transporter-related protein 88E) [DRSC15562]?
calcium entry signal, replicate 1: 3.96e7; calcium entry signal, replicate 2: 5.46e7; resting calcium signal, replicate 1: 1.91e7; resting calcium signal, replicate 2: 5.86e7; Call: inactive

What did the screen give for CG3117 [DRSC00568]?
calcium entry signal, replicate 1: 3.47e7; calcium entry signal, replicate 2: 3.83e7; resting calcium signal, replicate 1: 1.71e7; resting calcium signal, replicate 2: 1.78e7; Call: inactive

What did the screen give for CG30050 [DRSC05342]?
calcium entry signal, replicate 1: 5.11e7; calcium entry signal, replicate 2: 3.87e7; resting calcium signal, replicate 1: 2.17e7; resting calcium signal, replicate 2: 1.51e7; Call: inactive

With rhi (rhino) [DRSC05996], what was measured?
calcium entry signal, replicate 1: 4.65e7; calcium entry signal, replicate 2: 5.46e7; resting calcium signal, replicate 1: 2.09e7; resting calcium signal, replicate 2: 2.51e7; Call: inactive
